# The list shows a part of the results.
# Amino acid sequences for entries named in this document (tags omitted). A change or cut given only in a name is not applied to a line headed by its entry.
# UniProt Q92835: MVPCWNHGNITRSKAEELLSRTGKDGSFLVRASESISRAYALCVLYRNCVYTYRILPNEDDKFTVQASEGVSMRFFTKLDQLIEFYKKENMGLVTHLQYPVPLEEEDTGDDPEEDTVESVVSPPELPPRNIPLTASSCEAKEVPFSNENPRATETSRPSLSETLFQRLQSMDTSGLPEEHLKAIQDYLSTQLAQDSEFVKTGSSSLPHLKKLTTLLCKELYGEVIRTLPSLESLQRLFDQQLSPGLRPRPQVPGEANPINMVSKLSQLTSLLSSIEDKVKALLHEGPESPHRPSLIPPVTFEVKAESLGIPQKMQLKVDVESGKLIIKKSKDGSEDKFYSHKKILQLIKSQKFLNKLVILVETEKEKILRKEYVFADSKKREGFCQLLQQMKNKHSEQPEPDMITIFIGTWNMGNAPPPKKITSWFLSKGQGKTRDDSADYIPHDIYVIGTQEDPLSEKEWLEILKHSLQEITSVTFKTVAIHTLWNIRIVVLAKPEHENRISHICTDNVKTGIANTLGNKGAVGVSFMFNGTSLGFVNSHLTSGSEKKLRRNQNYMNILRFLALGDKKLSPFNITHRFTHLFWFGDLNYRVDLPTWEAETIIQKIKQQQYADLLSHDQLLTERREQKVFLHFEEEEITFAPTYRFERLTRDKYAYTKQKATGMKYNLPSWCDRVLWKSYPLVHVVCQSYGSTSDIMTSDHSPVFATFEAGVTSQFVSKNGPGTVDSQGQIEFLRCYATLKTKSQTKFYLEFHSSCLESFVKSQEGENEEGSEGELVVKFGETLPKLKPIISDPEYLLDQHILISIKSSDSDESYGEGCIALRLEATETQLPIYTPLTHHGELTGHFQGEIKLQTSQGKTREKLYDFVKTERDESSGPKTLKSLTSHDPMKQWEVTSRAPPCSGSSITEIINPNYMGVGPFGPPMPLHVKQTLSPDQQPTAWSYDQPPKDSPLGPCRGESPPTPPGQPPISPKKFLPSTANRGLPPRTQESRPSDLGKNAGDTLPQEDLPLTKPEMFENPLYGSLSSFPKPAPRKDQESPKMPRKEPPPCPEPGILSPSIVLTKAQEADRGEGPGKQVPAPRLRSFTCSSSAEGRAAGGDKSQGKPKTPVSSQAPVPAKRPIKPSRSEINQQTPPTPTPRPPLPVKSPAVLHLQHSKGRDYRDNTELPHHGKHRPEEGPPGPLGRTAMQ
# UniProt O95373, whole entry, looked up: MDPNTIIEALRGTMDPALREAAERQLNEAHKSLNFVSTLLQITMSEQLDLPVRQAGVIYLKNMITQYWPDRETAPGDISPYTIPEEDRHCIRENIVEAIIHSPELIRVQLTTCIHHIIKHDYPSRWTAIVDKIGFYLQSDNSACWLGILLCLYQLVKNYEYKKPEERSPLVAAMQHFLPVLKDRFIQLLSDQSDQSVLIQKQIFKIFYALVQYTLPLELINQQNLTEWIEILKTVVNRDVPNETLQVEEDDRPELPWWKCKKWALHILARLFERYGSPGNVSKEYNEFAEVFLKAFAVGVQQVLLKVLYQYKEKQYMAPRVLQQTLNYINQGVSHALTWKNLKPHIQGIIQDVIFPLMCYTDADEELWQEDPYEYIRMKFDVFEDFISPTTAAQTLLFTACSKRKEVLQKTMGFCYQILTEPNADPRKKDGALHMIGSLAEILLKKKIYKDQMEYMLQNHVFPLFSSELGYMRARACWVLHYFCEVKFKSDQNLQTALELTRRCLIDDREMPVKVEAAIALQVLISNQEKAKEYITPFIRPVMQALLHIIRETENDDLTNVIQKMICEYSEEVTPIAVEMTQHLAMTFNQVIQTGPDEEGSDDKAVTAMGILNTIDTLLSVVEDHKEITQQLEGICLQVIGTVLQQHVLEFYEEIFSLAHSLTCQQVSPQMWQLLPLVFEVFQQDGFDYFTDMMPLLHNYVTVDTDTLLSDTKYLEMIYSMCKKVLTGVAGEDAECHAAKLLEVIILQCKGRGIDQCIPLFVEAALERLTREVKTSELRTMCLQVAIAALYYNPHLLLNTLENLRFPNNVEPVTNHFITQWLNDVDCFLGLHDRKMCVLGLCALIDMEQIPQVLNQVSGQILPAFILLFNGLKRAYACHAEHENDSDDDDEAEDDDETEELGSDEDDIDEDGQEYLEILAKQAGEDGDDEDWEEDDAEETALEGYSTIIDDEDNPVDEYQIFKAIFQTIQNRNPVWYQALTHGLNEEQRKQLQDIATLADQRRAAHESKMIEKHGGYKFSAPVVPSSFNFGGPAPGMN
# UniProt P05107, whole entry, looked up: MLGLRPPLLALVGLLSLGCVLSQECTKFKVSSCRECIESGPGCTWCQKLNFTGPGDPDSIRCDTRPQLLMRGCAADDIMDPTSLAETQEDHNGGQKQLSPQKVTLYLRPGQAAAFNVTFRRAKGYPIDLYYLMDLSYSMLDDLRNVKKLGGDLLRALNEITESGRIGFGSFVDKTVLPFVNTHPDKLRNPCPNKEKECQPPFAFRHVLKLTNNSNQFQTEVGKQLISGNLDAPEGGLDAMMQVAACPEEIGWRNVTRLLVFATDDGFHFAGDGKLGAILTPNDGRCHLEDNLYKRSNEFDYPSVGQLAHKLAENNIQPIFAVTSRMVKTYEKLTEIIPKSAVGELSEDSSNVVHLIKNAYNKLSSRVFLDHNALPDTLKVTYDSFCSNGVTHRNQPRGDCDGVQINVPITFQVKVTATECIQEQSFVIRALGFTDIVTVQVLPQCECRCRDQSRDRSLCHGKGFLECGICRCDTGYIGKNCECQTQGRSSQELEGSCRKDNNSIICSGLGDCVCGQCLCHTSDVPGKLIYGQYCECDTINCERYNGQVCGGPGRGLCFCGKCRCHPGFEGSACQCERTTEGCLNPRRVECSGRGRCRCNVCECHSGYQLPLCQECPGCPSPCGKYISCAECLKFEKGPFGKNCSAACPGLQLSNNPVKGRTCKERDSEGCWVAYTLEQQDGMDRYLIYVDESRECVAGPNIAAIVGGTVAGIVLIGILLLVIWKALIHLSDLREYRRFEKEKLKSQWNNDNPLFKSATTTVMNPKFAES
# UniProt P05556, whole entry, looked up: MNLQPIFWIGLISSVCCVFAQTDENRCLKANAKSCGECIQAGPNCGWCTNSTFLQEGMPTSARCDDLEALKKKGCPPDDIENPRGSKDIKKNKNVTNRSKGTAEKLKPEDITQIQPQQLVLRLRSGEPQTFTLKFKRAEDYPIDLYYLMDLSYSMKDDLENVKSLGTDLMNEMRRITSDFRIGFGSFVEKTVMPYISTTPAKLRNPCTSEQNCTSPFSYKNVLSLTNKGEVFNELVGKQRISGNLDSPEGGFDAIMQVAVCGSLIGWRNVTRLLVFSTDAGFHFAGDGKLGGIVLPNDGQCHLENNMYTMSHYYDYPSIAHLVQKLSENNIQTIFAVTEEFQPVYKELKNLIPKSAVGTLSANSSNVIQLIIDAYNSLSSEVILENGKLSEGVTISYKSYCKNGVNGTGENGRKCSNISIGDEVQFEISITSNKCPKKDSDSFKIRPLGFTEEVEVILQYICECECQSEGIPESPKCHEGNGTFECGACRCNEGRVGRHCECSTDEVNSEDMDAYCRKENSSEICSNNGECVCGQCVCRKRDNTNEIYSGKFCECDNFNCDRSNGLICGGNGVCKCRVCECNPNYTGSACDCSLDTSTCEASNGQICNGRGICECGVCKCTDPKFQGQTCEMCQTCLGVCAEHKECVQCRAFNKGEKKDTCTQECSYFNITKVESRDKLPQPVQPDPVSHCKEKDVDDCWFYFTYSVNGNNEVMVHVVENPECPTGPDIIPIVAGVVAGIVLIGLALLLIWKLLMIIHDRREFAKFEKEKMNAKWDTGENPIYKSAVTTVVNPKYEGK
# UniProt Q9NVM9, whole entry, looked up: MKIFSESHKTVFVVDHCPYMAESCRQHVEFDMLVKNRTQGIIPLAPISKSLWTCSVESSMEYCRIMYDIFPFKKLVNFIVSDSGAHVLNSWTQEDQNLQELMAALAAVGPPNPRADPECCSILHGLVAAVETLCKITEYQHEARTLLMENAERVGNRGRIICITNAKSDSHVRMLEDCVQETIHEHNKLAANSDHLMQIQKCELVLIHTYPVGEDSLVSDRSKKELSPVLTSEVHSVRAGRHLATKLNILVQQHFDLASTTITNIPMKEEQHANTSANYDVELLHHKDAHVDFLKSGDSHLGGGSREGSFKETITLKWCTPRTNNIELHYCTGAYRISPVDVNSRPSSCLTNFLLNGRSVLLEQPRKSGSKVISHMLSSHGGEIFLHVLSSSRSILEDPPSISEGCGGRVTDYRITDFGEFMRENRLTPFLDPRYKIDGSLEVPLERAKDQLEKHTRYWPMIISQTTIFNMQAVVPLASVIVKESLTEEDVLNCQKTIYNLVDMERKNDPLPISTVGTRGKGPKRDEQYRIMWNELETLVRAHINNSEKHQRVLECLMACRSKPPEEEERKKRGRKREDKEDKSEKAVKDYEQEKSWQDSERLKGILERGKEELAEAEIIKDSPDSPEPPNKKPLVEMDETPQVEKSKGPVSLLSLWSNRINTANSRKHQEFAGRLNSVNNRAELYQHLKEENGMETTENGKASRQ
# UniProt Q9NVR2, whole entry, looked up: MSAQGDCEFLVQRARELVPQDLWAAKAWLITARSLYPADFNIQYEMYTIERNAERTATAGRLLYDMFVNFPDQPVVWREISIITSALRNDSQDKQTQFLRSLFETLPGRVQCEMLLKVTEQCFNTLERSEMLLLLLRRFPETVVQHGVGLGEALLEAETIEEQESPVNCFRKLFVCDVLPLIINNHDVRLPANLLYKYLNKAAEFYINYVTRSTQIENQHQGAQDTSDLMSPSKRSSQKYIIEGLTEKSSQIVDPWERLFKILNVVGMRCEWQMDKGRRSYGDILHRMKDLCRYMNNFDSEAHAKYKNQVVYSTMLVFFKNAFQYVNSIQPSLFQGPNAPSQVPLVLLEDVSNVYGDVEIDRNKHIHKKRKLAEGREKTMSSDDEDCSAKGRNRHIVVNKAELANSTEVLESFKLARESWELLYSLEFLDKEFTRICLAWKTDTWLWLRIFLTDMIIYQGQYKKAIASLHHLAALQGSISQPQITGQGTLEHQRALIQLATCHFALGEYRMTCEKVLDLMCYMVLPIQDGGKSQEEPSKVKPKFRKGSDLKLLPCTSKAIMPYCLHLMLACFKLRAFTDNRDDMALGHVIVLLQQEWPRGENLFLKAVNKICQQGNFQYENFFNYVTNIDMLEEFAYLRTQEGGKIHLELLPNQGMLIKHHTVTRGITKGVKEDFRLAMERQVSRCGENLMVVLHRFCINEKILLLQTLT
# UniProt Q6DN90: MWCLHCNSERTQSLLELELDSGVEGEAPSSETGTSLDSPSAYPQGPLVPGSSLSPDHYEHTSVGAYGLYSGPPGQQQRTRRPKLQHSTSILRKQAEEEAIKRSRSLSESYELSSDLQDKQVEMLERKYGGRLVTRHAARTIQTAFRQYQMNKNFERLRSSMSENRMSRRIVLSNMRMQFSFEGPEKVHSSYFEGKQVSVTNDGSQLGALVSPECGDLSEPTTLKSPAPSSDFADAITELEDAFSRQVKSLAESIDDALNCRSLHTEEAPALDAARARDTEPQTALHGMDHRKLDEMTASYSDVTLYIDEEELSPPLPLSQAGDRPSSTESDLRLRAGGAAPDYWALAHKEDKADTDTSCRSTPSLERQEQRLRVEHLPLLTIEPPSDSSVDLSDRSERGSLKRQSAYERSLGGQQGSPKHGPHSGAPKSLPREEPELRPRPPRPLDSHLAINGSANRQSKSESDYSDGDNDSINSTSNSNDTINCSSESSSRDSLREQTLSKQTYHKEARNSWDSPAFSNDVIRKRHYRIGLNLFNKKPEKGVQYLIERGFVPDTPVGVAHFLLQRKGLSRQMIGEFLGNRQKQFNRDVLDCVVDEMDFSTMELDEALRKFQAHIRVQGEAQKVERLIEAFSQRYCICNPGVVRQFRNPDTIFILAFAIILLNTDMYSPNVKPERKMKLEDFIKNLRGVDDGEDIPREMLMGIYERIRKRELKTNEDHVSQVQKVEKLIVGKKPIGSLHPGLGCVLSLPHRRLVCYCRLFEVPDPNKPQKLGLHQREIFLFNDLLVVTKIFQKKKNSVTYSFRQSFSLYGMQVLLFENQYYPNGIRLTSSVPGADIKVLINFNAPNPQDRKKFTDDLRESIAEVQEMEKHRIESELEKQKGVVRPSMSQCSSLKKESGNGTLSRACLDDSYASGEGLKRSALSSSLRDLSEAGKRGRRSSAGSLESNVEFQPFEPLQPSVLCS
# UniProt Q14653: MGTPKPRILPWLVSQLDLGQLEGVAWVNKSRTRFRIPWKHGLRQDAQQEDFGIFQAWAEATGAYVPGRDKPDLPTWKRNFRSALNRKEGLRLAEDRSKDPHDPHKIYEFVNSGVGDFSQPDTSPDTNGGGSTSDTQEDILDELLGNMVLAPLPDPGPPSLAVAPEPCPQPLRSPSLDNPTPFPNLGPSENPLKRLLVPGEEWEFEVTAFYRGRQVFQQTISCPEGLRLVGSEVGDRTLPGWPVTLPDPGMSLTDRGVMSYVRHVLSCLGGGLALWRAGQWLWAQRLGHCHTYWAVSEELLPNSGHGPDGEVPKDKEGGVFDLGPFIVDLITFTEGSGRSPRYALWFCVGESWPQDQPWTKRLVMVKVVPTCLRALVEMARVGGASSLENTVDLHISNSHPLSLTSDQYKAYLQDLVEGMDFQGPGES
# Compound: CC1Cc2ccccc2N1C(=O)C1CCCN(C1)C(=O)CCl (mixture of isomers) [TRIM25 ligand 11 (diastereomer mixture)]
# Assay: probe-labelled cysteine peptide fold change vs DMSO (competition) (log2 fold change); higher = less target engagement (more negative = stronger competition)
# Conditions: THP-1, incubation time: 4 h
# 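Further: competitive chemoproteomic profiling in live THP-1 cells with an iodoacetamide desthiobiotin (IA-DTB) probe, comparing probe-labelled peptide intensities in compound-treated cells against DMSO-treated controls.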
Target,probe-labelled cysteine peptide fold change (10 µM),probe-labelled cysteine peptide fold change (50 µM)
ITGA5_P08648_921_CELGPLHQQESQSLQLHFR (UniProt P08648),-0.0379,-0.0165
INPP5D_Q92835_217_LTTLLCK (UniProt Q92835),0.0443,0.0869
IPO7_O95373_90_ETAPGDISPYTIPEEDRHCIR (UniProt O95373),0.0712,0.0748
ITGB2_P05107_582_TTEGCLNPR (UniProt P05107),0.133,-0.00128
IPO7_O95373_484_ACWVLHYFCEVK (UniProt O95373),0.131,0.392
INTS14_Q96SY0_464_ECTLLPETAHPDAAFQLTHAAQQLK (UniProt Q96SY0),-0.00928,0.131
IRF2BP2_Q7Z5L9_16_QSCYLCDLPR (UniProt Q7Z5L9),-0.0578,-0.0183
ITGB1_P05556_64_CDDLEALKK (UniProt P05556),-0.0716,0.0347
INTS1_Q8N201_867_LGHLLCR (UniProt Q8N201),0.0521,0.031
ITGB2_P05107_286_CHLEDNLYK (UniProt P05107),0.101,0.0992
INTS13_Q9NVM9_119_ADPECCSILHGLVAAVETLCK (UniProt Q9NVM9),0.136,0.0582
INPP5D_Q92835_736_CYATLK (UniProt Q92835),0.0943,0.0324
INTS10_Q9NVR2_502_ALIQLATCHFALGEYR (UniProt Q9NVR2),-0.072,0.0269
INSR_P06213_153_NNELCYLATIDWSR (UniProt P06213),0.00884,0.0408
ITGB1_P05556_636_FQGQTCEMCQTCLGVCAEHK (UniProt P05556),-0.103,0.0466
ITGB1_P05556_618_GICECGVCK (UniProt P05556),0.078,0.327
INTS10_Q9NVR2_387_TMSSDDEDCSAK (UniProt Q9NVR2),-0.158,-0.288
IQGAP3_Q86VI3_646_GVVPDCANGYQR (UniProt Q86VI3),0.0605,-0.0575
IRGQ_Q8WZA9_328_DWAQVQALLLPDAPLVCVR (UniProt Q8WZA9),0.0359,-0.034

Target,probe-labelled cysteine peptide fold change (10 µM),probe-labelled cysteine peptide fold change (50 µM)
INPP5D_Q92835_138_NIPLTASSCEAK (UniProt Q92835),-0.0268,-0.162
IQGAP1_P46940_57_WMEACLGEDLPPTTELEEGLR (UniProt P46940),-0.268,0.0472
INTS2_Q9H0H0_272_GMVVEECHLPGLGVALTLDHTK (UniProt Q9H0H0),0.155,0.155
INTS9_Q9NV88_5+14_LYCLSGHPTLPCNVLK (UniProt Q9NV88),-0.0225,0.0142
IPO9_Q96P70_639_ELSQIEACQGPMQMR (UniProt Q96P70),-0.0476,-0.187
IPO13_O94829_309_QAVQNGDMETSHGICR (UniProt O94829),0.223,0.203
IRAK4_Q9NWZ3_13_CLNVGLIR (UniProt Q9NWZ3),-0.237,-0.127
IPO4_Q8TEX9_962_VRDNICGALAR (UniProt Q8TEX9),-0.0638,0.0403
INPP5D_Q92835_506_ISHICTDNVK (UniProt Q92835),0.0178,0.119
ISY1_Q9ULR0_36_RPFLASECTELPK (UniProt Q9ULR0),-0.0124,0.0391
IQSEC1_Q6DN90_359_ADTDTSCR (UniProt Q6DN90),-0.0256,-0.0516
IRF3_Q14653_267_HVLSCLGGGLALWR (UniProt Q14653),-0.17,0.346
INTS13_Q9NVM9_560_VLECLMACR (UniProt Q9NVM9),-0.0941,0.0497
INPP5F_Q9Y2H2_725_NPEEDGKDTLQCIAEMLQITK (UniProt Q9Y2H2),-0.143,-0.053
IQGAP1_P46940_45_QNVAYEYLCHLEEAKR (UniProt P46940),-0.0558,0.0295
INPP5B_P32019_990_AQEFIHQFLCNPL (UniProt P32019),-0.46,-0.548
ITGAM_P11215_123_GLCFLFGSNLR (UniProt P11215),0.138,-0.0456
IRF8_Q02556_306_VFCSGNAVVCK (UniProt Q02556),0.0194,0.142

# Pulled one by one from the entries so far (2):
Target,probe-labelled cysteine peptide fold change (10 µM),probe-labelled cysteine peptide fold change (50 µM)
ITGAM_P11215_123_GLCFLFGSNLR (UniProt P11215),0.138,-0.0456
IQSEC1_Q6DN90_359_ADTDTSCR (UniProt Q6DN90),-0.0256,-0.0516

# — the supplement of paper PMC12067093, “Discovery and optimisation of a covalent ligand for TRIM25 and its application to targeted protein ubiquitination” (Chemical Science, 2025)
